The target of test [1] is Myst2-FTAP (mouse) (UniProt Q5SVQ0). Description: affinity purification with mass spectrometry; single FLAG immunoprecipitation of Myst2-FTAP complexes, native eluate fractionated by blue native PAGE, 48 fractions, quantitative mass spectrometry, hierarchical clustering of migration profiles (ABC-MS).
Test [2] shares this target. The experiment in a line: affinity purification with mass spectrometry; tandem affinity purification (TAP) of Myst2-FTAP from whole cell extracts of 10e9 mouse ESCs, high salt lysis buffer (450 mM NaCl); TEV eluate on calmodulin resin, EGTA elution; three replicates; control beta-gal-FTAP.

The chains behind the UniProt entries cited, without tags or fusion partners.
UniProt Q5SVQ0: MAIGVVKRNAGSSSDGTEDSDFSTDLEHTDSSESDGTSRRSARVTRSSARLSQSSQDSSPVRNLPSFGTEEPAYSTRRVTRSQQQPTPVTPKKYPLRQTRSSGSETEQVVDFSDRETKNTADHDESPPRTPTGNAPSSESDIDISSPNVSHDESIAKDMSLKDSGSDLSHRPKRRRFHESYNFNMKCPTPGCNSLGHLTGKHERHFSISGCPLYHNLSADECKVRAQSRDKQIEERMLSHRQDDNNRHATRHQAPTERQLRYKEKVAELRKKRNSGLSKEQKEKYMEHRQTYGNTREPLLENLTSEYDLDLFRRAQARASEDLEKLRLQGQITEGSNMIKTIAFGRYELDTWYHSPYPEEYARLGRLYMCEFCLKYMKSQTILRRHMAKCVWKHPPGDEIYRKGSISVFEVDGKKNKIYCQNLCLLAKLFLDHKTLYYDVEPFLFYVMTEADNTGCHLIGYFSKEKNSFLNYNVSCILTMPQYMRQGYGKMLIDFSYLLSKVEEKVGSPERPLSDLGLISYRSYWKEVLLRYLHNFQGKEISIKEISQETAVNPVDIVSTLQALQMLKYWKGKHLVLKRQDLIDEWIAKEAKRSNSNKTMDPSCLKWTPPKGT
UniProt Q6ZQF7: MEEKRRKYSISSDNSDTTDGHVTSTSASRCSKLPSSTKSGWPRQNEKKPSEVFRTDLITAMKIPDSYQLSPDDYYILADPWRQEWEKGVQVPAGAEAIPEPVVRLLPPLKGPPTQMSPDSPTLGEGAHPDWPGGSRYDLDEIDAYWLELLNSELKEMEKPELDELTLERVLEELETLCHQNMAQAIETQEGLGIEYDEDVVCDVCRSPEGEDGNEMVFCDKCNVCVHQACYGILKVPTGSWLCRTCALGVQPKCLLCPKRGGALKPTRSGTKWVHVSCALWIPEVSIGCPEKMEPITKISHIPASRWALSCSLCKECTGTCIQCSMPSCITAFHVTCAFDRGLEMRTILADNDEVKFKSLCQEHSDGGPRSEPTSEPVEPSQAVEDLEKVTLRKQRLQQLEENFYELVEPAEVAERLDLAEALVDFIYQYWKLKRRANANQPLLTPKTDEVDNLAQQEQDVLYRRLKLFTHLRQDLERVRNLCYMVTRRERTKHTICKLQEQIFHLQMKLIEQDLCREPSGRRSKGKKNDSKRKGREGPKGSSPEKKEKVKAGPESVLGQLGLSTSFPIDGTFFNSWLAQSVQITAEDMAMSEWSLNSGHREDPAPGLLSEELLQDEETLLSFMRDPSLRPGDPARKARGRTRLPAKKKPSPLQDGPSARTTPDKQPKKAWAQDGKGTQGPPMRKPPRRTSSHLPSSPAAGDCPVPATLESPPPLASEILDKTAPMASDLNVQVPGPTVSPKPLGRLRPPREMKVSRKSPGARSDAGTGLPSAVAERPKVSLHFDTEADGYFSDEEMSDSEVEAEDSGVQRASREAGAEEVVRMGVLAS
UniProt Q8C0D7: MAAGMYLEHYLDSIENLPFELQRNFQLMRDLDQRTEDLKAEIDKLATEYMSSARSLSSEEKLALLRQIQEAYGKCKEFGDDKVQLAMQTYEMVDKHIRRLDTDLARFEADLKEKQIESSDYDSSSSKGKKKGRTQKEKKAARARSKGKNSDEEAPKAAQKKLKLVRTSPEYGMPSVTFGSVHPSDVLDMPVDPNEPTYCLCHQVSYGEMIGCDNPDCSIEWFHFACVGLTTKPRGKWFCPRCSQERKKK
UniProt B2KF05: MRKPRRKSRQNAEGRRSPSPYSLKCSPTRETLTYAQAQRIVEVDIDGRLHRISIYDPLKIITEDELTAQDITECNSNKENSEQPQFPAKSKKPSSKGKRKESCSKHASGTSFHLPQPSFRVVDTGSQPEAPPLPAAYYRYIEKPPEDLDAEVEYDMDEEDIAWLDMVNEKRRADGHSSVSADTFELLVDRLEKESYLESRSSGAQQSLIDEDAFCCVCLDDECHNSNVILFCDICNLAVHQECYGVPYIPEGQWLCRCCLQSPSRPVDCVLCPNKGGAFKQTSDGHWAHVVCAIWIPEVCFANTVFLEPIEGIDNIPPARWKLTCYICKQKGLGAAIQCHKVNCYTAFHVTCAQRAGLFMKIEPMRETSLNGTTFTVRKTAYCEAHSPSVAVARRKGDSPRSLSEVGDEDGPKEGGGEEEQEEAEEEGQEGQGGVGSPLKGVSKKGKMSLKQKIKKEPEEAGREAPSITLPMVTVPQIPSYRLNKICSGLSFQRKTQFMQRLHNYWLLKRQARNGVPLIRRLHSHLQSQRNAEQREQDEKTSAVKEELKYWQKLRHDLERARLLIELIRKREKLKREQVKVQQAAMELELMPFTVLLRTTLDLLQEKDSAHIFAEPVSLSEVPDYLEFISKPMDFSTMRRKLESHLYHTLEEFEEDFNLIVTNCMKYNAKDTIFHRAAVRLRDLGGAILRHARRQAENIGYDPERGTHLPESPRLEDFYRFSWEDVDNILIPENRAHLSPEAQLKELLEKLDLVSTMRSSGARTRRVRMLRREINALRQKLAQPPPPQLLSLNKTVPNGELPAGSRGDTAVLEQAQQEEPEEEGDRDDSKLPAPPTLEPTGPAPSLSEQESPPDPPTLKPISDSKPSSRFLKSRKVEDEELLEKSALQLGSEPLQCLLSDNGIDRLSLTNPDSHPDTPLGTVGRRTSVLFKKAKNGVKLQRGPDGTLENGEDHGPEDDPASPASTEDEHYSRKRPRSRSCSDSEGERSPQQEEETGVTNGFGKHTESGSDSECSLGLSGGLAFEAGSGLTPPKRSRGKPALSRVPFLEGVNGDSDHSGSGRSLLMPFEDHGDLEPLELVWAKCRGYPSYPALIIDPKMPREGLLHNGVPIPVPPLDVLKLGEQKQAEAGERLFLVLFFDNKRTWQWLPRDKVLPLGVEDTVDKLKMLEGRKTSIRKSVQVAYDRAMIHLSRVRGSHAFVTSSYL
UniProt Q9D8Y8: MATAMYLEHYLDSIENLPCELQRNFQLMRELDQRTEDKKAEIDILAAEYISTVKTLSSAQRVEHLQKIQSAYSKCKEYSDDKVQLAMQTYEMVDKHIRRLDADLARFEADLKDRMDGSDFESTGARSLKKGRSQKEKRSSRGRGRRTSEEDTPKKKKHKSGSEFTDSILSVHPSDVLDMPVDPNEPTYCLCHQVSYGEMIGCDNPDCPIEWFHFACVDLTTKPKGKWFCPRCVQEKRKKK

Results are given in words; binding and its absence hold for the method and conditions named. Binding seen in cells or lysates may run through a third protein. A yes stands for co-enrichment or nearness to the bait. Other partners may have been found.

As for Phf15 (from UniProt Q6ZQF7 1-829), the binding entry in the test with Myst2-FTAP (mouse) [1] and in the test with Myst2-FTAP (mouse) [2] was “binds” in each case.
As for Ing4 (from UniProt Q8C0D7 1-249), the binding result with Myst2-FTAP (mouse) [1] and with Myst2-FTAP (mouse) [2] was “binds” each time.
As for Brpf3 (from UniProt B2KF05 1-1204), the binding entry with Myst2-FTAP (mouse) [1] and in the test with Myst2-FTAP (mouse) [2] was “binds” each time.
For Phf17 (from UniProt Q6ZPI0-1 1-834), the binding entry with Myst2-FTAP (mouse) [1] and in the test with Myst2-FTAP (mouse) [2] was “binds” each time.
Take Ing5 (from UniProt Q9D8Y8 1-240): the binding entry with Myst2-FTAP (mouse) [1] and in the test with Myst2-FTAP (mouse) [2] was “binds” each time.

B1: Phf16 (protein, UniProt Q6IE82 1-823)
chain: MKRHRPVSSSESSDECPSTSFTSSSMYRKKSKNPKEQKKSAEVFRKDLISAMKIPDSHHVNPDSYYLFTDTWKEEWEKGVQVPANPDSVPTPSLRIISEKVKEMLFVRPRKYIRCSSPESAEPGYINTLEQAASTCRYDLDDMDIFWLQELNEDLGEMGYGPIDETLMEKTIEVLERHCHENMNHAIETVEGLGIEYDEDVICDVCRSPDSEEGNDMVFCDKCNVCVHQACYGILKIPEGSWLCRSCVLGIYPQCVLCPKKGGAMKTTRTGTKWAHVSCALWIPEVSIACPERMEPVTKISHIPPSRWALVCNLCKLKTGACIQCSVKSCITAFHVTCAFEHGLEMKTILDEGDEVKFKSFCLKHSQNKPKLGDAEYHHHRVAEQSQAKSEKTSLRAQKLRELEEEFYTLVQVEDVAKEMELSAFTVDFIYNYWKLKRKSNFNKPLIPPKEEEENGLVQPKEESIHTRMRMFMHLRQDLERVRNLCYMISRREKLKLSHTKVQEQIFGLQVQLINEEITEGLSLTNALENSLFYPPPRITLKLKMPKSTSEDCKDSSTETEHQLSSPGSSSPGHSKRSPQMPEEPLDMNVKIYPRYPLESKSNCLQTSRSHSRCETKSSSPTPRAPSAEFYHGQSLGKPLALQAALHGQVSIGNGKNQPNSRVSSSNGLEGNWSGNITQKVNSSEVCYDQESMLSSHLPSPGNIRKSSMEHFSRSFKEATNTWVKPTEDLQYCVKPTKNVSSKEQLWGRQLLRRPTGRASYQETDGYCPDLEPSDSEAEGEGSKETPRVKRESSDRENPSHDSARECHGKTKTHPHSHSSMQR
For the molecule B1, the binding entry with Myst2-FTAP (mouse) [1] and in the test with Myst2-FTAP (mouse) [2] was “binds” each time.

The record behind these values is article PMC5557939.
